Data as given in PubChem BioAssay AID540276 (National Center for Advancing Translational Sciences (NCATS), 2011).
The campaign covered roughly 300,000 compounds. About 5,400 (1.8%) were called active. Inconclusive results, whose numbers are uncertain, are shown with a selection of clear calls. The call rests on the fitted dose curve; tested in HEK293 cells. A potency beside an inconclusive call is a rough fit, not a confirmed value.

Assay: qHTS for inhibitors of binding or entry into cells for Marburg Virus
Conditions: Marburg virus pseudotyped entry inhibition, cell reporter; activity change, negative = inhibition: at 37.8 µM (top of the series) unless noted
On the % scale 0 is the no-effect control and ±100 the full control effect; potency means the concentration at half of the fitted maximal effect.

Structure (SMILES)	activity change, negative = inhibition	Potency
Cc1cc2cc(CNC(=S)NCc3ccccc3)ccc2n1C	inactive: -19.1% [at 46.1 µM]	–
Cc1ccc(/C=N\NC(=O)CNC(=O)C23CC4CC(CC(C4)C2)C3)o1	–	inconclusive: 1.12 µM [activator, single point]
CCCCCOc1ccc(NS(C)(=O)=O)cc1	inactive: 23.2%	–
CN(c1ccc(F)cc1)S(=O)(=O)c1ccc(Cl)c(C(=O)NCC2(N3CCOCC3)CCCCC2)c1	–	inconclusive: 12.6 µM [inhibitor, partial curve, poor fit]
CC(C)[C@H](NC(=O)c1ccccc1Cl)C(=O)OCc1cc([N+](=O)[O-])cc2c1OCOC2	–	inconclusive: 31.6 µM [activator, single point]
O=C1N(c2cccc(Cl)c2)C(c2ccccc2)N2CCCN12 (centres undefined)	–	inconclusive: 3.55 µM [inhibitor, single point]
Nc1c(N2CCCC2)cc(Cl)c2nonc12	inactive: 10.1%	–
C=CCCN1C=C(C(=O)OCC)C(c2ccccc2)NC1=O (centres undefined)	–	inconclusive: 4.73 µM [inhibitor, partial curve, poor fit]
O=C(Nc1nc(-c2cccs2)cs1)c1cc2ccccc2oc1=O	inactive: -0.00515%	–
Cc1cc(Cl)ccc1OCCCC(=O)NCCN1C(=O)S/C(=C\c2cccnc2)C1=O	–	inconclusive: 11.2 µM [inhibitor, partial curve]
O=c1oc2ccccc2cc1-c1csc(NN=C2CCCC2)n1	–	inconclusive: 3.98 µM [activator, full curve, poor fit]
Cc1ccc(NC(=O)c2sccc2C)cc1S(=O)(=O)N(C)C	inactive: 0.696%	–
COc1ccc(C2=NC(C)(C)N(CC(=O)Nc3cccc(C)c3)C2=O)cc1	–	inconclusive: 12.6 µM [inhibitor, single point]
COCCNC(=S)NC1CC2CCCC(C1)N2Cc1ccco1 (centres undefined)	–	inconclusive: 5.8 µM [inhibitor, partial curve]
COc1ccc([C@H]2[C@H](C(=O)OC(C)(C)C)N3N=Cc4ccccc4C3C23C(=O)c2ccccc2C3=O)cc1OC (some centres undefined)	–	inconclusive: 35.5 µM [inhibitor, single point]
CCOCCCNC(=O)C1(O)c2ccccc2NC(=O)N1c1ccc(Cl)c(Cl)c1 (centres undefined)	–	inconclusive: 14.1 µM [activator, partial curve, poor fit]
CCOC(=O)c1cc(C)n(-c2ccc(OC)c(OC)c2)c1C	–	inconclusive: 8.91 µM [inhibitor, partial curve, poor fit]
CCc1cccc(C)c1N1C(=O)CN(Cc2ccccc2)C1=S	–	inconclusive: 17.8 µM [inhibitor, single point]
O=C(Nc1ccc(C#Cc2ccccc2)cc1)C1CC1	–	active: 2.31 µM
CC1Oc2ccccc2C=C1/C=N/NC(=O)c1ccccc1 (centres undefined)	–	inconclusive: 35.5 µM [inhibitor, single point]
Cc1c(Cl)cccc1NS(=O)(=O)c1ccc2c(c1)C1C=CCC1C(c1ccc(C(=O)O)cc1)N2 (centres undefined)	–	inconclusive: 15.8 µM [inhibitor, single point]
O=S(=O)(c1ccc(-c2ccccc2)cc1)N1CCCCC1	inactive: 5.18%	–
Cc1ccnc(Nc2nc(-c3ccc(Cl)cc3)cs2)c1	–	inconclusive: 0.794 µM [activator, full curve, poor fit]

Structure (SMILES)	activity change, negative = inhibition	Potency
Cc1cc(C)n(-c2nnc(Nc3ccc(C)c(Cl)c3)c3ccccc23)n1	inactive: -4.42% [at 46.1 µM]	–
CCOC(=O)c1sc(NC(=O)Cc2c(F)cccc2Cl)nc1C	–	inconclusive: 25.1 µM [inhibitor, single point]
O=C(COc1ccc(Br)cc1)NCCO	–	inconclusive: 0.562 µM [activator, full curve, poor fit]
C/C(=N\OC(=O)Nc1ccc(Cl)cc1)c1ccc(F)c(F)c1	inactive: 22.5% [at 46.1 µM]	–
c1ccc2c(c1)nc(N1CCCCCC1)c1ccccc12	–	inconclusive: 3.16 µM [activator, single point]
CSCCNCc1c(C(=O)N2CCOCC2)nc2c(C)cccn12	inactive: 4.3% [at 46.1 µM]	–
COc1cc(CNC(C)(C)CO)cc(Br)c1OCc1ccc(Cl)cc1	–	inconclusive: 7.94 µM [inhibitor, partial curve, poor fit]
CCN1C(=NCCc2c[nH]c3ccccc23)NC(c2cccc(F)c2)C(C(=O)OC)=C1C (centres undefined)	–	inconclusive: 0.668 µM [inhibitor, partial curve, poor fit]
CCOC(=O)c1cnc(SCC(=O)N2CCC(C(N)=O)CC2)nc1N	–	inconclusive: 3.55 µM [activator, single point]
Cc1csc(=O)n1CC(=O)OCc1cccc2ccccc12	inactive: 13.7%	–
O=C(NC1CCCC1)c1cccc(Cl)c1	inactive: 2.06% [at 46.1 µM]	–
COc1ccc(C(=O)NCC(=O)N/N=C/c2cn(C)c3ccccc23)cc1OC	inactive: 2.83% [at 46.1 µM]	–
Cc1nnc(SCC(=O)NNC(=O)c2ccco2)s1	–	inconclusive: 35.5 µM [activator, single point]
COc1cc(C2Nc3c(C)cc(C)cc3-c3cc(C)nn32)cc(OC)c1O (centres undefined)	–	inconclusive: 6.31 µM [inhibitor, single point]
O=C(c1ccc(Cl)c(S(=O)(=O)N2CCOCC2)c1)N1CCc2ccccc2C1	–	inconclusive: 0.794 µM [inhibitor, full curve, poor fit]
CCN(CC)C(=O)CSc1nc(N)c(C(=O)Nc2ccc(OC)cc2)s1	inactive: 0.847%	–
COc1ccc(Nc2c3c(nc4ccc(NC(=O)c5ccc(F)cc5)cc24)CCCC3)cc1OC	–	inconclusive: 17.8 µM [inhibitor, partial curve, poor fit]
CC(C)Cn1c(N)c(C(=O)COC(=O)[C@@H]2CCCN2C(=O)c2cccs2)c(=O)n(C)c1=O	–	inconclusive: 0.631 µM [inhibitor, full curve, poor fit]
Clc1ccc(CO/N=C/c2c(-c3ccccc3)nc3n2CCS3)c(Cl)c1	–	inconclusive: 6.51 µM [inhibitor, partial curve, poor fit]
Cc1ccc(S(=O)(=O)NNC(=O)C2Cc3c(ccc4ccccc34)O2)cc1 (centres undefined)	–	inconclusive: 17.8 µM [inhibitor, partial curve, poor fit]
COc1ccc(C2/C(=C(/O)c3ccc(F)cc3)C(=O)C(=O)N2CCCN(C)C)cc1 (centres undefined)	inactive: 6.25% [at 46.1 µM]	–
COc1ccc(-n2c(-c3ccc(Br)cc3)c[n+]3c2SC(C)C3)cc1 (centres undefined)	–	inconclusive: 35.5 µM [inhibitor, single point]
COc1cc(NS(=O)(=O)c2ccc3c(c2)n(C)c(=O)n3C)cc(OC)c1	–	inconclusive: 35.5 µM [inhibitor, single point]

Structure (SMILES)	activity change, negative = inhibition	Potency
CC(OC(=O)[C@H](C)NC(=O)c1ccccc1Cl)C(=O)NCc1ccc2c(c1)OCO2 (some centres undefined)	inactive: 11.4%	–
CC(=O)Nc1ccc(NC(=O)c2ccc3c(c2)N(Cc2cccc(Cl)c2)C(=O)c2ccccc2S3(=O)=O)cc1	–	inconclusive: 20 µM [inhibitor, single point]
CCOC(=O)C(C#N)(Cc1ccc2ccccc2n1)Cc1ccc2ccccc2n1	–	inconclusive: 14.1 µM [inhibitor, single point]
CCOC(=O)C1=C(C)OC(N)=C(C#N)C1c1cc2ccccc2nc1N1CCCCC1 (centres undefined)	inactive: 0.944%	–
Cc1cc(N)c(NC2=CC(=O)CC(C)(C)C2)cc1C	–	inconclusive: 0.103 µM [inhibitor, full curve, poor fit]
CN1CCNC(=O)C1CC(=O)NCCc1ccccc1F (centres undefined)	inactive: -24.2% [at 46.1 µM]	–
Cn1c(=O)c2[nH]c(CN(Cc3ccccc3)Cc3ccccc3)nc2n(C)c1=O	–	inconclusive: 1.78 µM [inhibitor, partial curve, poor fit]
CCOC1=C(C#N)CC2(CC1)c1ccccc1-c1ccccc12	–	inconclusive: 12.6 µM [inhibitor, single point]
Cc1onc(-c2c(F)cccc2Cl)c1C(=O)OCn1nnc2ccccc2c1=O	–	inconclusive: 35.5 µM [inhibitor, single point]
Cc1ccc2nc(SCc3nc4ccccc4c(=O)[nH]3)[nH]c2c1	–	inconclusive: 2 µM [activator, single point]
Cc1cc(N2CCN(Cc3cn(C)nc3-c3cccc(Cl)c3)CC2)cc(C)n1	–	inconclusive: 5.62 µM [inhibitor, single point]
O=C(O)c1cccc(NC(=S)N/N=C/c2cccnc2)c1	–	inconclusive: 35.5 µM [inhibitor, single point]
Cc1ccccc1NC(=S)Nc1ccc2[nH]c(=O)[nH]c2c1	inactive: -11.9% [at 46.1 µM]	–
O=C(NCC1COc2ccccc2O1)c1ccc(NC(=O)c2ccco2)cc1 (centres undefined)	–	inconclusive: 3.16 µM [activator, single point]
CCCCOc1cccc(C(=O)N(Cc2ccc(C)o2)c2ccccn2)c1	–	inconclusive: 35.5 µM [inhibitor, single point]
Cc1ccc(NC(=O)CCCC(=O)O)c(Br)c1	–	inconclusive: 0.282 µM [inhibitor, partial curve, poor fit]
O=C(CN(C(=O)c1csnn1)c1cccc2c1CCCC2)NCc1ccccc1	inactive: -17.5% [at 46.1 µM]	–
COc1cccc(NC(=O)CCCNC(=O)Cn2cnc3sc(C)c(C)c3c2=O)c1	inactive: 4.96% [at 46.1 µM]	–
COc1ccccc1CNC(=O)CSCc1cnn(-c2ccccc2)c1-n1cccc1	inactive: -17.2%	–
Nc1ccccc1Nc1cc(-c2ccccc2)[nH]n1	–	inconclusive: 12.6 µM [inhibitor, partial curve, poor fit]
COCCNC(=O)C(c1ccc(O)cc1)N(C(=O)CCC(=O)Nc1nccs1)c1cccc(C)c1 (centres undefined)	–	inconclusive: 11.2 µM [inhibitor, partial curve, poor fit]
CCCCc1c(C)[nH]c(C(=O)OCC)c1C	inactive: -15.9% [at 46.1 µM]	–
Cc1ccc2nc(CCc3nc4ccc(C)cc4o3)oc2c1	inactive: -3.93%	–

Exported in markdown: part of the list above

| Structure (SMILES) | activity change, negative = inhibition | Potency |
| --- | --- | --- |
| CCOC1=C(C#N)CC2(CC1)c1ccccc1-c1ccccc12 | – | inconclusive: 12.6 µM [inhibitor, single point] |
| Cc1onc(-c2c(F)cccc2Cl)c1C(=O)OCn1nnc2ccccc2c1=O | – | inconclusive: 35.5 µM [inhibitor, single point] |
| Cc1ccc2nc(SCc3nc4ccccc4c(=O)[nH]3)[nH]c2c1 | – | inconclusive: 2 µM [activator, single point] |
